# Measurements as given in article doi:10.1101/2024.07.02.601518.
# Protein sequences, listed by entry. Tags and fused reporters are not part of them.
# UniProt Q16665: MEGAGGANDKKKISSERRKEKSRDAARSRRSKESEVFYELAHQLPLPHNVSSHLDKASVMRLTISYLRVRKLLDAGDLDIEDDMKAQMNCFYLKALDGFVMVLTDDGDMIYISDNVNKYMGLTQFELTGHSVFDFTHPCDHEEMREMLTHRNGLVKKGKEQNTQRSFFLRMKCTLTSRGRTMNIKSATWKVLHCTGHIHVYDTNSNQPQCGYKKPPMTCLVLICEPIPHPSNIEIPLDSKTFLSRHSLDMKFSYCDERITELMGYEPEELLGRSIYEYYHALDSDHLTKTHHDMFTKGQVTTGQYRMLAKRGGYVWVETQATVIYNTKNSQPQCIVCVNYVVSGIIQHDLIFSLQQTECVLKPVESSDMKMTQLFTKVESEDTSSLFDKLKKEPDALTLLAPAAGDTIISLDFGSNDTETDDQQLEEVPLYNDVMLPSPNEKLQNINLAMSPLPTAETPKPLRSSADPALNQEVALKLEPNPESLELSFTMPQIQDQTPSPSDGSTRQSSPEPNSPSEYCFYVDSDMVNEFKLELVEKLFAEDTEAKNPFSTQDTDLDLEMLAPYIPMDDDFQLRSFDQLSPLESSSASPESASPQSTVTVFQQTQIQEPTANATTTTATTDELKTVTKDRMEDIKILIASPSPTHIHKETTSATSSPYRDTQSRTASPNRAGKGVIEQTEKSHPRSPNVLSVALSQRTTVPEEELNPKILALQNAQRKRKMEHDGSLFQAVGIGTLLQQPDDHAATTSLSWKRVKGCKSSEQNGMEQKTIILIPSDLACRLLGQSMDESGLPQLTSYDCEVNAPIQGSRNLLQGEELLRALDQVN
# Results are given in words; binding and its absence hold for the method and conditions named. In cells and extracts the contact can be indirect. Some binding calls cover weakened binding; strength is not graded here.
# B1: GOLGA3, human (protein, UniProt Q08378 1-1498)
# chain: MDGASAEQDGLQEDRSHSGPSSLPEAPLKPPGPLVPPDQQDKVQCAEVNRASTEGESPDGPGQGGLCQNGPTPPFPDPPSSLDPTTSPVGPDASPGVAGFHDNLRKSQGTSAEGSVRKEALQSLRLSLPMQETQLCSTDSPLPLEKEEQVRLQARKWLEEQLKQYRVKRQQERSSQPATKTRLFSTLDPELMLNPENLPRASTLAMTKEYSFLRTSVPRGPKVGSLGLPAHPREKKTSKSSKIRSLADYRTEDSNAGNSGGNVPAPDSTKGSLKQNRSSAASVVSEISLSPDTDDRLENTSLAGDSVSEVDGNDSDSSSYSSASTRGTYGILSKTVGTQDTPYMVNGQEIPADTLGQFPSIKDVLQAAAAEHQDQGQEVNGEVRSRRDSICSSVSLESSAAETQEEMLQVLKEKMRLEGQLEALSLEASQALKEKAELQAQLAALSTKLQAQVECSHSSQQRQDSLSSEVDTLKQSCWDLERAMTDLQNMLEAKNASLASSNNDLQVAEEQYQRLMAKVEDMQRSMLSKDNTVHDLRQQMTALQSQLQQVQLERTTLTSKLKASQAEISSLQSVRQWYQQQLALAQEARVRLQGEMAHIQVGQMTQAGLLEHLKLENVSLSQQLTETQHRSMKEKGRIAAQLQGIEADMLDQEAAFMQIQEAKTMVEEDLQRRLEEFEGERERLQRMADSAASLEQQLEQVKLTLLQRDQQLEALQQEHLDLMKQLTLTQEALQSREQSLDALQTHYDELQARLGELQGEAASREDTICLLQNEKIILEAALQAAKSGKEELDRGARRLEEGTEETSETLEKLREELAIKSGQVEHLQQETAALKKQMQKIKEQFLQQKVMVEAYRRDATSKDQLISELKATRKRLDSELKELRQELMQVHGEKRTAEAELSRLHREVAQVRQHMADLEGHLQSAQKERDEMETHLQSLQFDKEQMVAVTEANEALKKQIEELQQEARKAITEQKQKMRRLGSDLTSAQKEMKTKHKAYENAVGILSRRLQEALAAKEAADAELGQLRAQGGSSDSSLALHERIQALEAELQAVSHSKTLLEKELQEVIALTSQELEESREKVLELEDELQESRGFRKKIKRLEESNKKLALELEHEKGKLTGLGQSNAALREHNSILETALAKREADLVQLNLQVQAVLQRKEEEDRQMKHLVQALQASLEKEKEKVNSLKEQVAAAKVEAGHNRRHFKAASLELSEVKKELQAKEHLVQKLQAEADDLQIREGKHSQEIAQFQAELAEARAQLQLLQKQLDEQLSKQPVGNQEMENLKWEVDQKEREIQSLKQQLDLTEQQGRKELEGLQQLLQNVKSELEMAQEDLSMTQKDKFMLQAKVSELKNNMKTLLQQNQQLKLDLRRGAAKTRKEPKGEASSSNPATPIKIPDCPVPASLLEELLRPPPAVSKEPLKNLNSCLQQLKQEMDSLQRQMEEHALTVHESLSSWTPLEPATASPVPPGGHAGPRGDPQRHSQSRASKEGPGE
# Target: Hypoxia-inducible factor 1-alpha (HIF-1α), human (human (endogenous in UT7/TPO)) (UniProt Q16665)
# Experiment: co-IP
binder,measurement,value
B1,binding,binds
